Where a SMILES comes first, the peptide text is derived from it. [ ]: non-standard residue; d: D form. Dmt = Cc1cc(O)cc(C)c1C[C@H](N)C(=O)O
Tested on: C57BL/6 mice subjected to MCAO
Experiment: Infarct size, swelling and cerebral blood flow after MCAO
Type: in vivo
Conditions: vs vehicle
Method: FIG. 32A-32F. Effect of SS-31 peptide on ischemia-induced infarct size and swelling in C57BL/6 mice. Shown are representative serial sections (1.2 mm apart) stained with Cresyl Violet from mice subjected to 30 min (A) and 20 min (B) MCAO and treated with vehicle (Veh) or SS-31 (2 mg/kg body weight) immediately after reperfusion, 6 h, 24 h, and 48 h.
To address whether SS-31-induced attenuation in GSH depletion is associated with neuroprotection, mice were subjected to 30 or 20 min MCAO and then treated with vehicle or SS-31 (2 mg/kg, i.p.) upon reperfusion) and at 6 h, 24 h, 48 h after MCAO. Infarct volumes and hemispheric swelling were determined at 3 days after ischemia.

In the case of Cc1cc(O)cc(C)c1C[C@H](NC(=O)[C@H](N)CCCNC(=N)N)C(=O)N[C@@H](CCCCN)C(=O)N[C@@H](Cc1ccccc1)C(N)=O [SS-31, D-Arg-2′6′-Dmt-Lys-Phe-NH2] (H-[dR][Dmt]KF-NH2; N-terminus assumed), the “cerebral blood flow (CBF) reduction during MCAO” value is reported as “no difference” and the “reperfusion at 10 min” value is reported as “no difference”.

From patent US9950026B2, “Methods for reducing oxidative damage” (Cornell Research Foundation, Inc., priority 2004, dated 2018)
